The target in experiment [1] is rat CD177 on rat neutrophils (rat (endogenous in neutrophils)). Nature of the experiment: flow cytometry on cells; immune cells isolated from blood (human, pig, rat, mouse), 1 × 10^5 cells a well, free fluorescent peptide 1 µg ml^−1 for 20 min at 4 °C; human neutrophils co-stained with anti-CD177 monoclonal antibody; only the binder purified.
For experiment [2], the target named is pig CD177 on pig neutrophils (pig (endogenous in neutrophils)). The experiment is described as above.

We go through one molecule from paper PMC11357992, “Non-invasive mapping of systemic neutrophil dynamics upon cardiovascular injury” (Nature Cardiovascular Research, 2023).

These are yes or no findings as the source states them, for the method shown.

Take DLVTSKLQVGGGC (carboxyfluorescein on the N-terminus; C-terminal cysteine with free sulfhydryl) [human neutrophil-specific peptide (hNP), free peptide]: the binding result in experiment [1] and in experiment [2] was “no binding (tested: 1 µg ml^−1)” each time.
